Laboratory results as given in patent publication US20240043521A1.
These are yes or no findings as the source states them, for the method shown. Some binding calls cover weakened binding; strength is not graded here.

Sequences of proteins named here, by UniProt entry; tags and fusion partners are left off. Residues count along the entry.
UniProt P07091, residues 2-101: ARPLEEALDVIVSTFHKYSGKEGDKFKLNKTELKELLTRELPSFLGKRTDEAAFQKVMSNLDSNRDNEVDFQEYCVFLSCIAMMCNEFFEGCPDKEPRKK

Experiments:
[1] = biological target: mouse S100A4 protein (mouse) (UniProt P07091); experiment: immunofluorescence on wild-type MEFs
[2] = biological target: mouse S100A4 protein (mouse) (UniProt P07091); experiment: Western blot
[3] = biological target: mouse S100A4 protein (mouse) (UniProt P07091); experiment: immunofluorescence on wild-type and S100A4 knock-out MEFs

binding [1]	binding [2]	binding [3]	Binder
binds	binds	binds	VH1_H40Phe VL3 (antibody, V domains shown) VH: QVQLQESGPGLVKPSQTLSLTCTVSGDSFTNDYYWNWIRQFPGKGLEWIGHIGYGGNINYNPSLKNRLSMSRDTSKNQFSLKLSSVTAADTAVYYCTRESFYDGYPFDYWGQGTLVTVSS VL: DIQMTQSPSSLSASVGDRVTITCRASQDIRNYLNWYQQKPGKAPKLLLYYTSRLHSGVPSRFSGSGSGTDYTLTISSLQPEDFATYYCQQGNSLPRTFGGGTKVEIK
binds	binds	binds	VH1 VL3_L44Leu (antibody, V domains shown) VH: QVQLQESGPGLVKPSQTLSLTCTVSGDSFTNDYYWNWIRQHPGKGLEWIGHIGYGGNINYNPSLKNRLSMSRDTSKNQFSLKLSSVTAADTAVYYCTRESFYDGYPFDYWGQGTLVTVSS VL: DIQMTQSPSSLSASVGDRVTITCRASQDIRNYLNWYQQKPGKALKLLLYYTSRLHSGVPSRFSGSGSGTDYTLTISSLQPEDFATYYCQQGNSLPRTFGGGTKVEIK
binds	binds	binds	VH1_40Phe:VL3_Leu44 (antibody, V domains shown) VH: QVQLQESGPGLVKPSQTLSLTCTVSGDSFTNDYYWNWIRQFPGKGLEWIGHIGYGGNINYNPSLKNRLSMSRDTSKNQFSLKLSSVTAADTAVYYCTRESFYDGYPFDYWGQGTLVTVSS VL: DIQMTQSPSSLSASVGDRVTITCRASQDIRNYLNWYQQKPGKALKLLLYYTSRLHSGVPSRFSGSGSGTDYTLTISSLQPEDFATYYCQQGNSLPRTFGGGTKVEIK
